# PubChem BioAssay AID1259308 – NCATS, 2017
# Purpose: 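Genes whose loss raises luciferase production in HEK293 cells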 (primary screen)
# Cell system: human HEK293 embryonic kidney cells stably expressing firefly luciferase (HEK-CMV-Luc2-Hygro)
# Reagents: single siRNA against human genes, 0.8 pmol siRNA per well
# Timing: 72 h
# Measurement: 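Reporter luminescence and viable-cell signal on separate replicate plates, given as percent of non-targeting control and median/MAD z-scores, plus per-cell luciferase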
# Reading the numbers: total luciferase, z-score and total luciferase, % of control: higher = more reporter protein produced; luciferase per cell, z-score: higher = more reporter output per viable cell; viable cells, % of control: higher = more viable cells
# Call rule: 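Active when the median/MAD z-score for overall luciferase is greater than 3; a gene was taken forward for validation with new siRNAs if at least two of its three siRNAs passed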
# Meaning of the calls: active = raised luciferase; inactive = no rise
# Shown is a random part of about 59,000 reagents tested. About 1,510 of them (2.6%) count as active. 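Calls use total luciferase alone and ignore viability, so some active siRNAs may act by altering cell number.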 Unmarked entries are inactive. The numbers tell different reagents against one gene apart. No sequences are given here.
gene knocked down,reagent no.,"total luciferase, z-score","total luciferase, % of control","luciferase per cell, z-score","viable cells, % of control"
DYNLL2 (dynein light chain LC8-type 2),1,1.24,107,1.8,74.1
DYNLL2 (dynein light chain LC8-type 2),2,-0.483,72.3,-0.753,98.5
DYNLL2 (dynein light chain LC8-type 2),3,0.324,88.3,0.627,83.7
DNAJC2 (DnaJ heat shock protein family (Hsp40) member C2),1,-2.34,35.3,-2.24,71.1
DNAJC2 (DnaJ heat shock protein family (Hsp40) member C2),2,-0.298,76,-0.499,96.8
DNAJC2 (DnaJ heat shock protein family (Hsp40) member C2),3,-0.0326,81.2,-0.152,94.5
SLC27A2,1,-0.158,78.7,1.12,65.5
SLC27A2,2,0.264,87.1,-0.268,105
SLC27A2,3,-0.435,73.2,-0.699,98.4
SOX6 (SRY-box transcription factor 6),1,0.347,88.8,0.274,92.3
SOX6 (SRY-box transcription factor 6),2,-0.581,70.3,-1.13,106
SOX6 (SRY-box transcription factor 6),3,-0.468,72.6,0.261,75.7
MTMR4 (myotubularin related protein 4),1,-0.0894,80.1,2.21,50.1
MTMR4 (myotubularin related protein 4),2,-2.47,32.8,-3.1,82.9
MTMR4 (myotubularin related protein 4),3,0.612,94.1,-0.056,107
FERMT2 (FERM domain containing kindlin 2),1,0.46,91,0.444,90.5
FERMT2 (FERM domain containing kindlin 2),2,3.33 (active),148,2.18,93.1
FERMT2 (FERM domain containing kindlin 2),3,-0.88,64.4,-1.59,109
DYRK4 (dual specificity tyrosine phosphorylation regulated kinase 4),1,-0.857,64.8,-0.981,93.8
DYRK4 (dual specificity tyrosine phosphorylation regulated kinase 4),2,-0.884,64.3,-0.503,82
DYRK4 (dual specificity tyrosine phosphorylation regulated kinase 4),3,0.514,92.1,1.49,69.4
JMJD6,1,2.23,126,1.84,86.8
JMJD6,2,-0.0267,81.4,0.483,80
JMJD6,3,0.414,90.1,0.429,89.9
SLC13A3,1,-0.546,71,-0.418,88.6
SLC13A3,2,0.662,95,0.214,100
SLC13A3,3,1.15,105,0.802,94.8
INKA1 (inka box actin regulator 1),1,0.899,99.8,1.32,78.7
INKA1 (inka box actin regulator 1),2,0.597,93.8,0.465,92.7
INKA1 (inka box actin regulator 1),3,-1.59,50.3,-1.65,86.9
RNF175 (ring finger protein 175),1,-0.401,73.9,0.122,80
RNF175 (ring finger protein 175),2,-1.78,46.4,-1.27,72.3
RNF175 (ring finger protein 175),3,0.311,88.1,0.269,91.7
TMEM72 (transmembrane protein 72),1,0.545,92.7,0.426,92.6
TMEM72 (transmembrane protein 72),2,0.0477,82.8,0.621,78.6
TMEM72 (transmembrane protein 72),3,-2.51,31.9,0.515,31.1
OSBPL2 (oxysterol binding protein like 2),1,-1.82,45.8,-0.891,64.7
OSBPL2 (oxysterol binding protein like 2),2,-0.126,79.4,-0.723,107
OSBPL2 (oxysterol binding protein like 2),3,-0.692,68.1,-0.941,97.5
RGPD5 (RANBP2 like and GRIP domain containing 5),1,-0.0821,80.3,-0.666,107
RGPD5 (RANBP2 like and GRIP domain containing 5),2,-0.0178,81.5,0.155,87.5
RGPD5 (RANBP2 like and GRIP domain containing 5),3,0.199,85.8,-0.469,109
ZNF862 (zinc finger protein 862),1,-0.791,66.2,-0.776,90.7
ZNF862 (zinc finger protein 862),2,2.12,124,2.06,80.6
ZNF862 (zinc finger protein 862),3,-0.822,65.5,-1.78,117
PNPLA3,1,0.413,90.1,-0.228,107
PNPLA3,2,-0.787,66.2,-1.37,106
PNPLA3,3,-0.609,69.8,0.49,68.5
PSPH (phosphoserine phosphatase),1,1.7,116,0.91,102
PSPH (phosphoserine phosphatase),2,0.655,94.9,0.238,99.6
PSPH (phosphoserine phosphatase),3,0.808,97.9,0.595,93.6
CPSF7 (cleavage and polyadenylation specific factor 7),1,3.44 (active),150,1.99,99.5
CPSF7 (cleavage and polyadenylation specific factor 7),2,0.0979,83.8,-0.349,103
CPSF7 (cleavage and polyadenylation specific factor 7),3,0.483,91.5,0.281,94.9
TTLL1 (TTL family tubulin polyglutamylase complex subunit L1),1,0.891,99.6,1.26,79.9
TTLL1 (TTL family tubulin polyglutamylase complex subunit L1),2,-0.554,70.9,-1.03,104
TTLL1 (TTL family tubulin polyglutamylase complex subunit L1),3,0.0058,82,0.258,85.6

Part of the list above, reformatted.
{"gene knocked down":"ZNF862 (zinc finger protein 862)","reagent no.":1,"total luciferase, z-score":-0.791,"total luciferase, % of control":66.2,"luciferase per cell, z-score":-0.776,"viable cells, % of control":90.7}
{"gene knocked down":"ZNF862 (zinc finger protein 862)","reagent no.":2,"total luciferase, z-score":2.12,"total luciferase, % of control":124,"luciferase per cell, z-score":2.06,"viable cells, % of control":80.6}
{"gene knocked down":"ZNF862 (zinc finger protein 862)","reagent no.":3,"total luciferase, z-score":-0.822,"total luciferase, % of control":65.5,"luciferase per cell, z-score":-1.78,"viable cells, % of control":117}
{"gene knocked down":"PNPLA3","reagent no.":1,"total luciferase, z-score":0.413,"total luciferase, % of control":90.1,"luciferase per cell, z-score":-0.228,"viable cells, % of control":107}
{"gene knocked down":"PNPLA3","reagent no.":2,"total luciferase, z-score":-0.787,"total luciferase, % of control":66.2,"luciferase per cell, z-score":-1.37,"viable cells, % of control":106}
